This assay addresses T1, Nop7-TAP (S. cerevisiae), P53261.
T1 chain: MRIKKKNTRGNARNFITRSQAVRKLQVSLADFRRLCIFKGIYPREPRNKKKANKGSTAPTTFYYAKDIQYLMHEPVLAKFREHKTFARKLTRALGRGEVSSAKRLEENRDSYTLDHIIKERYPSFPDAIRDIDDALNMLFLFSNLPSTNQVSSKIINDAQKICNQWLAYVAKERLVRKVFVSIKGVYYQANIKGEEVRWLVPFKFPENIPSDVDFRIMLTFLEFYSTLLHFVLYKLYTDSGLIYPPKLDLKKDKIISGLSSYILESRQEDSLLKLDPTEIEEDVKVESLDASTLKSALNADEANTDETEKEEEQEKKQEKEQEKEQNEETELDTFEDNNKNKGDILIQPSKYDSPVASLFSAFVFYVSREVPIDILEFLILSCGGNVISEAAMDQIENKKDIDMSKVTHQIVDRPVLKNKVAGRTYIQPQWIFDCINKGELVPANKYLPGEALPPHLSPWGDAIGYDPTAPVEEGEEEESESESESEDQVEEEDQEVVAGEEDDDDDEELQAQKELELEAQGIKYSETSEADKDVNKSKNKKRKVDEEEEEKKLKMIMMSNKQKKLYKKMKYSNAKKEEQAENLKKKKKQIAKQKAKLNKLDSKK
As to the kind of experiment: tandem affinity purification (TAP) with Western blotting; TAP-tagged bait purified from yeast cells expressing Mak5-GFP; 50 mM Tris-HCl pH 7.5, 100 mM NaCl, 1.5 mM MgCl2, 5% glycerol, 0.1% NP-40; TEV cleavage, elution from Calmodulin-Sepharose with 5 mM EGTA; eluates blotted with anti-GFP, anti-Nop7, anti-Ebp2, anti-Rpl3. As to conditions: remark: other sources report otherwise.

Results are given in words; binding and its absence hold for the method and conditions named. Tags and fused reporters may be left off the sequences shown.

B1: Mak5-GFP, P38112 1-773 (protein)
chain: MGKKRAPQKGKTVTKPQEIIVDESKLNWKPVDIPDTLDDFGGFYGLEEIDGVDVKVVDGKVTFVTKKDSKVLKDSNKEKVGDDQESVENESGSDSESELLEFKNLDDIKEGELSAASYSSSDEDEQGNIESSKLTDPSEDVDEDVDEDVLKENVFNKDINIDDISPVNLPEWTNLAPLSMTILQSLQNLNFLRPTEIQKKSIPVIMQGVDVMGKASTGSGKTLAYGIPIVEKLISNFSQKNKKPISLIFTPTRELAHQVTDHLKKICEPVLAKSQYSILSLTGGLSIQKQQRLLKYDNSGQIVIATPGRFLELLEKDNTLIKRFSKVNTLILDEADRLLQDGHFDEFEKIIKHLLVERRKNRENSEGSSKIWQTLIFSATFSIDLFDKLSSSRQVKDRRFKNNEDELNAVIQHLMSKIHFNSKPVIIDTNPESKVSSQIKESLIECPPLERDLYCYYFLTMFPGTTLIFCNAIDSVKKLTVYLNNLGIPAFQIHSSMTQKNRLKSLERFKQQSAKQKTINHSNPDSVQLSTVLIASDVAARGLDIPGVQHVIHYHLPRSTDIYIHRSGRTARAGSEGVSAMICSPQESMGPLRKLRKTLATKNSVSTDLNSRSTNRKPIKWQNTVPLLPIETDILSQLRERSRLAGELADHEIASNSLRKDDNWLKKAADELGIDVDSDEDDISKSNSDTFLLKNKNKKMQKTINKDKVKAMRATLNELLSVPIRKDRRQKYLTGGLVNLADNLVKKRGHNSIIGHEKTNALETLKKKKKRNN
Turning to B1, the binding result is “no binding”.

These data come from paper PMC3846774.
